PMC2430196, “Antagonist affinity measurements at the Gi-coupled human histamine H3 receptor expressed in CHO cells” (BMC Pharmacology, 2008)

Protein sequences, listed by entry. Tags and fused reporters are not part of them. Lines headed by an entry give the natural chain unless they say otherwise; changes in a name come on top.
UniProt Q9Y5N1: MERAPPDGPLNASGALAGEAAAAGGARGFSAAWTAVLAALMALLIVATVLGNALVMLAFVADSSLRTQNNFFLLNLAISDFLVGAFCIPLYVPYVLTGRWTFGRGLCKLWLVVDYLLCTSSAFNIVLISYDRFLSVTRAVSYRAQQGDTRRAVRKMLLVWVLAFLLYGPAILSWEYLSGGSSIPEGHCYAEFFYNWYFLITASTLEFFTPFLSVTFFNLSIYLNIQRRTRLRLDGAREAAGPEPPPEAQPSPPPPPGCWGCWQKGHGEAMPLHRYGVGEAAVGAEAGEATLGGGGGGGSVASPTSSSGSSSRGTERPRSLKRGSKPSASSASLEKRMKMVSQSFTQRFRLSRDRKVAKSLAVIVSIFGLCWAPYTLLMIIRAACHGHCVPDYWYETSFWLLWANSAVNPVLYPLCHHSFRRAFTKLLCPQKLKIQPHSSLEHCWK

Experiments:
[1] = biological target: T1, human histamine H3 receptor (Homo sapiens, UniProt Q9Y5N1); assay: cell-based
[2] = biological target: T1, human histamine H3 receptor; assay: CRE-SPAP gene transcription in forskolin-stimulated CHO-H3-SPAP cells; conditions: Log KD values
[3] = biological target: T1, human histamine H3 receptor; assay: 3H-cAMP accumulation in forskolin-stimulated CHO-H3-SPAP cells; format: cell-based; parameters: secondarily transfected with the full length human histamine H3 receptor; host or cells: CHO-K1 cells with CRE-SPAP reporter (clonal line CHO-H3-SPAP); conditions: 5 hours incubation with ligand, n = 4
Protocol: Cells were grown to confluence in 24-well plates. The media was removed and the cells pre-labelled with ^3H-adenine by incubation with 2 μCi/ml ^3H-adenine in serum-free media (0.5 ml per well) for 3 hours. The ^3H-adenine was then removed and the cells washed by the addition then removal of 1 ml serum-free media. […] Forskolin (final concentration of 10 μM) was then added to all but the basal wells and the plates incubated for 30 minutes. The reaction was terminated by the addition of 50 μl concentrated HCl per well and the plates were then frozen. Later, the plates were thawed and ^3H-cAMP separated from other ^3H-nucleotides by sequential Dowex and alumina column chromatography, as previously described.
When the intrinsic efficacy of the antagonist ligands was examined, the antagonists were incubated for 5 hours at 37°C in order to maximise the chance of detecting any changes in ^3H-cAMP accumulation.
Response=Emax×[A]/IC50+[A]

CN1CCC[C@@H]1CCO[C@](C)(c1ccccc1)c1ccc(Cl)cc1 [clemastine]
Kd [1]: 1620 nM
Kd ([2]; agonist N-α-methylhistamine): 2040 nM
Kd ([2]; agonist R-α-methylhistamine): 1620 nM
Kd ([2]; agonist S-α-methylhistamine): 1820 nM
Kd ([2]; agonist VUF 8430): 5500 nM
Kd ([2]; agonist histamine): 1860 nM
Kd ([2]; agonist imetit): 2040 nM
Kd ([2]; agonist immethridine): 3160 nM
Kd ([2]; agonist impentamine (first component of the response)): 1860 nM
Kd ([2]; agonist proxyfan): 2510 nM
intrinsic activity response in 3H-cAMP accumulation [3]: No responses
